# In US20050282870A1, “Peripherally-acting vasodilators” (priority 2004, published 2005):
# At least one structure is not confirmed: it was looked up by name or label, or the drawing left a doubt.
# System: forearm and dorsum of the foot skin
# Assay: Skin vasodilatory response to iontophoresis of 1% acetylcholine and 1% sodium nitroprusside solutions
# Assay type: in vivo, human
# Settings: iontophoresis of 1% solution, compared among the three agents
compound,measurement,setting,value
CC(=O)OCC[N+](C)(C)C [acetylcholine],maximal vasodilatory response,"control group (healthy subjects), forearm",similar
same,maximal vasodilatory response,"diabetic patients with peripheral neuropathy, forearm and foot",similar
